From paper PMC8816931 come the findings set out here.

Sequences of proteins named here, by UniProt entry; tags and fusion partners are left off. A change or cut given only in a name is not applied to a line headed by its entry.
UniProt A2AFI6: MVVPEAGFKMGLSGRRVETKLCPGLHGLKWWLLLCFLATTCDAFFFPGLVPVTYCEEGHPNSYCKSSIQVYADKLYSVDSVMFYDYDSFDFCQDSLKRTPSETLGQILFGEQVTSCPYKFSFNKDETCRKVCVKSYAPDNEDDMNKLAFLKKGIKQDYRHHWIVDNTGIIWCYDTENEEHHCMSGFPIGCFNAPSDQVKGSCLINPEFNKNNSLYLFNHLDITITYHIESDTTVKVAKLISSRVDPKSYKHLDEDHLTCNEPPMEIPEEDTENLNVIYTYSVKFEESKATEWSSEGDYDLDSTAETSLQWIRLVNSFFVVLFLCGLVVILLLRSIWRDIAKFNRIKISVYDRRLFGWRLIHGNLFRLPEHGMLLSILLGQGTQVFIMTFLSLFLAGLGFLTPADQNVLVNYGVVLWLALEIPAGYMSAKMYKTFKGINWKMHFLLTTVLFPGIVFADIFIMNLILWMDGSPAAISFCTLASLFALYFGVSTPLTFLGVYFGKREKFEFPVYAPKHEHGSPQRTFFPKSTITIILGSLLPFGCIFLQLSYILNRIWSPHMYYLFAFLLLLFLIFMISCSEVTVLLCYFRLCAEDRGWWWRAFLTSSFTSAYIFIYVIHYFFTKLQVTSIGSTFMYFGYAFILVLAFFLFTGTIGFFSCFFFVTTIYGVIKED

In this assay the target is Gm364 (mouse) (UniProt A2AFI6). The assay is described as follows: affinity purification with mass spectrometry; anti-Gm364 antibody IP against control IgG IP from oocyte lysate, SDS-PAGE, silver staining, distinct bands cut out, MALDI-TOF peptide mass fingerprinting (Mascot).

These are yes or no findings as the source states them, for the method shown. Binding seen in cells or lysates may run through a third protein. A yes stands for co-enrichment or nearness to the bait. Other partners may have been found.

B1: MIB2 (enzyme, UniProt Q8R516 1-973)
chain: MDLDPHAGVQVGMRVVRGMDWKWGQQDGGEGGVGTVVELGRHGSPSTPDRTVVVQWDQGTRTNYRAGYQGAHDLLLYDNAQIGIRHPNIICDCCKKHGLRGMRWKCRVCFDYDLCTQCYMHNKHDLTHAFERYETSHSRPVTLSPRQGLPRIPLRGIFQGAKVVRGPDWEWGSQDGGEGKTGRVVDIRGWDVETGRSVASVTWADGTTNVYRVGHKGKVDLRCVGEAAGGFYYKEHLPKLGKPAELQRRVSADGQPFQRGDKVKCLLDTDVLRDMQEGHGGWNPRMAEFIGQMGTVHRITDRGDVRVQFNHETRWTFHPGALTKHNSFWVGDVVRVIGDLDTVKRLQAGHGEWTDDMAPALGRVGKVVKVFGDGNLRVAVGGQRWTFSPSCLVAYRPEEDANLDVAERARENKSAASVSVAGSLSVALDKLRTQKSDPEHPGRLVVEAALGNVARALDLLRRHPEQASYHPALVVDTKNQGRTALQVAAYLGQVELVRLLLQARASMDLPDDEGNTVLHYTAMGNQPEATRVLLSAGCAVDARNGTRSTALHVAVQRGFLEVVKILCERGCDVNLPDAHADTPLHSAISAGAGASSIVEVLTEVPGIDVTATNSQGFTLLHHASLKGHVLAVRKILARARQLVDAKKEDGFTALHLAALNNHREVAQVLIREGRCDVNVRNRKLQSPLHLAVQQAHLGLVPLLVDAGCSVNTEDEEGDTALHVALQRHQLLPLVADRAGGDPGPLQLLSRLQASGLPGCTELTVGAAVACFLALEGADVSYANHRGRSPLDLATEGRVLKALQGCAQRFRERQAGGGGGVPPGPRHVLSTPNTVTNLHVSGTAGPEAAECLVCSELALLILFSPCQHRTVCEECARRMKKCIRCQVVISKKLRPDGSEVVNAIQVPGPPRQLVEELQSRYRQMEERITCPICIDSHIRLVFQCGHGACAPCGAALNACPICRQPIRDRIQIFV
Consider B1, for which the binding result was “binds”.

B2: GRAMD1A (protein, UniProt Q8VEF1 1-722)
chain: MFDTTPHSGRSSPSSSPSLRKRLQLLPPIRPPPASEPEPGTMVEKGSDSSSEKSGVSGTLSTQSLGSRNFIRNSKKMQSWYSMLCPTYKQRNEDFRKLFSKLPEAERLIVDYSCALQREILLQGRLYLSENWICFYSNIFRWETTISIQLKEVTCLKKEKTAKLIPNAIQICTESEKHFFTSFGARDRCFLLIFRLWQNALLEKTLSPRELWHLVHQCYGSELGLTSEDEDYVCPLQLNGLGSPKEVGDVIALSDISPSGAADHSQEPSPVGSRRGRVTPNLSRASSDADHGAEEDKEEQTDGLDASSSQTVTPVAEPLSSEPTPPDGPTSSLGPLDLLSREELLTDTSNSSSSTGEEGDLAALLPDLSGRLLINSVFHMGAERLQQMLFSDSPFLQGFLQQRKFTDVTLSPWSSDSKCHQRRVLTYTIPISNQLGPKSASVVETQTLFRRGPQAGGCVVDSEVLTQGIPYQDYFYTAHRYCILGLARNKARLRVSSEIRYRKQPWSLVKSLIEKNSWSGIEDYFHHLDRELAKAEKLSLEEGGKDTRGLLSGLRRRKRPLSWRGHRDGPQHPDPDPCTQTSMHTSGSLSSRFSEPSVDQGPGAGIPSALVLISIVLIVLIALNALLFYRLWSLERTAHTFESWHSLALAKGKFPQTATEWAEILALQKHFHSVEVHKWRQILRASVELLDEMKFSLEKLHQGITVPDPPLDTQPQPDDSFP
Take B2: the binding entry is given as “binds”.
